Measured values taken from publication PMC3206029.
Results are given in words; binding and its absence hold for the method and conditions named. In cells and extracts the contact can be indirect.

Sequences of proteins named here, by UniProt entry; tags and fusion partners are left off. A change or cut given only in a name is not applied to a line headed by its entry.
UniProt Q14790: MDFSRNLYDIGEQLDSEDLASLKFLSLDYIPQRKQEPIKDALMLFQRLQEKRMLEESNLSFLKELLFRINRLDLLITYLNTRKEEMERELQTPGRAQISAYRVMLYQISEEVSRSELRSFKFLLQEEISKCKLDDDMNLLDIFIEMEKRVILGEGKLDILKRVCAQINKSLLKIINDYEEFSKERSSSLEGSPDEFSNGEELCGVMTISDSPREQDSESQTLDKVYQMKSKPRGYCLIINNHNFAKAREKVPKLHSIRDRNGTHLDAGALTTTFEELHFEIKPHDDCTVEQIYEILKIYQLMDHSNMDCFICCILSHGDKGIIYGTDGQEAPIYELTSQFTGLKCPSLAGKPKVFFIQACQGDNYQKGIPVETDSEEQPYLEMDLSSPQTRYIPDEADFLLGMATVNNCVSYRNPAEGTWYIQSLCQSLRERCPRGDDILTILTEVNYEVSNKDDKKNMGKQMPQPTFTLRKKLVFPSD
UniProt P09486: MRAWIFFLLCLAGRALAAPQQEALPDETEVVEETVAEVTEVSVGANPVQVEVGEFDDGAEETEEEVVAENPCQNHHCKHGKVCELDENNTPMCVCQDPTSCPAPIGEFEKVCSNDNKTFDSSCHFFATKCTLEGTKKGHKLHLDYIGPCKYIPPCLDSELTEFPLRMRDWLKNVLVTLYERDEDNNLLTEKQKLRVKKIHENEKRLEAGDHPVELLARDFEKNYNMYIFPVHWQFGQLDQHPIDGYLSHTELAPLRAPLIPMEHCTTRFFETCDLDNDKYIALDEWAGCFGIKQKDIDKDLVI

target: caspase 8 (human (endogenous in MIP101, RKO, MiaPaCa and MCF-7 cells)) (UniProt Q14790); assay: co-IP; whole protein extracts of MIP101 cells stably or transiently overexpressing myc/His6-tagged SPARC domains; antibodies against caspase 8 and His6, reciprocal; Protein A:Protein G beads, PBS, 4°C

| Substance | binding |
| --- | --- |
| mutant follistatin-like domain of SPARC SP-Fmut2 (from UniProt P09486) (domain or fragment) | no binding |
| mutant follistatin-like domain of SPARC SP-Fmut1 (from UniProt P09486) (domain or fragment) | no binding |
| follistatin-like domain of SPARC, myc/His6-tagged (SP-F) (from UniProt P09486) (domain or fragment) | no binding |
